Experimental data published in patent publication US20030176444A1, “Cytokine production inhibitors” (priority 2000, published 2003).
At least one structure is not confirmed: it was looked up by name or label, or the drawing left a doubt.

How the values were obtained:
[1] = tested on: methicillin-resistant Staphylococcus aureus (MRSA) O-271 strain; assay: Rabbit ocular infection: viable bacterial number in corneal and conjunctival tissues; format: in vivo, Japanese White Rabbits
Description: (§1) The subject substances used for the test include […], 0.3 w/v % and 0.5 w/v % gatifloxacin eye drops. The control substances used include a 0.3 w/v % ofloxacin eye drop, a 0.5 w/v % levofloxacin eye drop and a physiological saline.
(§2) Japanese White Rabbits (male, 1.74 to 2.30 kg in weight) were generally anesthetized, and then 30 μL of 3.1×10^5 CFU/mL methicillin-resistant Staphylococcus aureus (MRSA) O-271 strain suspension was injected into a corneal stroma of each rabbit via a 27 gauge injection needle attached to a 100 μL microsyringe.
(§3) Five hours and 24 hours after the bacterial inoculation, 50 μL of each test substance was instillated into the rabbit eye using a micropipet. In the observation carried out 8, 16, 24, 32, and 48 hours after the bacterial inoculation, symptoms such as opacity of cornea, and redness and edema of conjunctiva were observed and scored based on the criteria as shown in Table 1. Each rabbit was sacrificed 52 hours after the bacterial inoculation, and then the eyeball was enucleated and cornea and conjunctiva were cut out. These tissue sections were morcellated in 2 mL of a physiological saline, diluted, and plated onto a Mueller-Hinton agar medium, and then the viable bacterial number was determined by counting the colonies formed after 48 hours.

[2] = tested on: methicillin-resistant Staphylococcus aureus (MRSA) O-271 strain ocular infection; assay: Rabbit ocular infection: scoring of corneal and conjunctival findings; format: in vivo, Japanese White Rabbits; conditions: 0.5 w/v % eye drop, until 48 hours after inoculation
Description: Antiinflammatory Effects on Rabbit Ocular Infection
as §1, §2, §3

SMILES	viable bacterial number in the corneal tissue (in words) ([1]; 0.3 w/v % eye drop)	viable bacterial number in the corneal tissue (in words) ([1]; 0.5 w/v % eye drop)	symptoms of the corneal infection (total cornea score) [2]
CC1COc2c(N3CCN(C)CC3)c(F)cc3c(=O)c(C(=O)O)cn1c23 (stereo not drawn) [Ofloxacin]	relatively weak	–	–
C[C@H]1COc2c(N3CCN(C)CC3)c(F)cc3c(=O)c(C(=O)O)cn1c23 [Levofloxacin]	–	greatly decreased	strong inhibitory effect
